{"sequences": {"note": "By UniProt entry, the sequences of proteins in these tests, tags left out. Residues count along the entry.", "UniProt P20029, residues 20-655": "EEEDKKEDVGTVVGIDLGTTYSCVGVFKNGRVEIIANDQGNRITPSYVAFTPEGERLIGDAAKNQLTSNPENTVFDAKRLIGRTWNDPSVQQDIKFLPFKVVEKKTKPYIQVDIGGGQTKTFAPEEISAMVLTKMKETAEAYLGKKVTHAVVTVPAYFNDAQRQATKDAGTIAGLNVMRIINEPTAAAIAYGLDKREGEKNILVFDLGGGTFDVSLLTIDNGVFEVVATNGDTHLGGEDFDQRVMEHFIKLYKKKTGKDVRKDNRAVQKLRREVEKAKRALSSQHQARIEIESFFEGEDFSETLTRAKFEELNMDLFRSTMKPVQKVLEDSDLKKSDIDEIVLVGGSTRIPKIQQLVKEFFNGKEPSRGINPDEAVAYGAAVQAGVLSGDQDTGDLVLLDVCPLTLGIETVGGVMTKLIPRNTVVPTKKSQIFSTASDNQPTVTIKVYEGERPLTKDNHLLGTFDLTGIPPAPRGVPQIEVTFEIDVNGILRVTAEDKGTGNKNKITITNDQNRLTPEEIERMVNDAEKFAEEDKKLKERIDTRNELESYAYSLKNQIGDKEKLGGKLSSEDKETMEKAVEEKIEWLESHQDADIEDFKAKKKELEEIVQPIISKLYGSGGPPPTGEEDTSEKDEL"}, "source": "paper PMC3071830", "key": {"[1]": {"target": "T1, UFBP1, endogenous (mouse (endogenous in MIN6)) (UniProt Q80WW9)", "T1 sequence": "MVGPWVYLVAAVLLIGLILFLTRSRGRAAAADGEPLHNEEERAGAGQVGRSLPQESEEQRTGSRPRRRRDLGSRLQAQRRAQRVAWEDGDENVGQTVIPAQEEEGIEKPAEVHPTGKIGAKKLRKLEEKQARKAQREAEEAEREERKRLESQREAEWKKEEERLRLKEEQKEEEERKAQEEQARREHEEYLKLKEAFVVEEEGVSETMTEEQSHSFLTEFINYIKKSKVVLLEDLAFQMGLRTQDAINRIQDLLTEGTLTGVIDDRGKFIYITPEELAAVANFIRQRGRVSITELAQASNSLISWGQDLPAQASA", "assay": "co-IP; cell lysates incubated with BiP, UFBP1 or UFM1 antibody, bound to protein A-TSK sepharose; SDS-PAGE and immunostaining"}, "[2]": {"target": "T2, CDK5RAP3-GST (mouse) (UniProt Q99LM2)", "T2 sequence": "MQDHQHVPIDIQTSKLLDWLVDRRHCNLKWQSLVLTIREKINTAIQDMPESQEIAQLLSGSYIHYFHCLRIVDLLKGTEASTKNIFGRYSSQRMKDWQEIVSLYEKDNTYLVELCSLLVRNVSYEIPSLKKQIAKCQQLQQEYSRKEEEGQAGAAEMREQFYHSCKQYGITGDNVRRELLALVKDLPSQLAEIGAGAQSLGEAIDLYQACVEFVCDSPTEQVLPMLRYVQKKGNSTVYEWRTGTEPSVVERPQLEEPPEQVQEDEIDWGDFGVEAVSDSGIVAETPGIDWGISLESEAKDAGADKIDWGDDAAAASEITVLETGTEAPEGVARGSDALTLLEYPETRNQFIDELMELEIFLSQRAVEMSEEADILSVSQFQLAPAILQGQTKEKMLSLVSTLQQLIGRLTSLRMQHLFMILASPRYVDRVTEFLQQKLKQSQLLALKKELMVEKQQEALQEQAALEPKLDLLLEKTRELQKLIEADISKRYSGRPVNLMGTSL", "assay": "pull-down; GST-UFM1(G), CDK5RAP3-GST or GST on glutathione-agarose beads; 35S-labelled in vitro translated proteins, pre-cleared on GST beads, added together with pre-cleared MIN6 lysate in ubiquitilation buffer (50 mM Tris pH 7.5, 100 mM NaCl, 0.1% NP40, 1 mM DTT, 2 mM ATP, 5 mM MgCl2), 30 min at 40°C as printed; phosphorimaging; only the target purified"}, "[3]": {"target": "T3, CDK5RAP3-GST (mouse), Q99LM2", "T3 chain": "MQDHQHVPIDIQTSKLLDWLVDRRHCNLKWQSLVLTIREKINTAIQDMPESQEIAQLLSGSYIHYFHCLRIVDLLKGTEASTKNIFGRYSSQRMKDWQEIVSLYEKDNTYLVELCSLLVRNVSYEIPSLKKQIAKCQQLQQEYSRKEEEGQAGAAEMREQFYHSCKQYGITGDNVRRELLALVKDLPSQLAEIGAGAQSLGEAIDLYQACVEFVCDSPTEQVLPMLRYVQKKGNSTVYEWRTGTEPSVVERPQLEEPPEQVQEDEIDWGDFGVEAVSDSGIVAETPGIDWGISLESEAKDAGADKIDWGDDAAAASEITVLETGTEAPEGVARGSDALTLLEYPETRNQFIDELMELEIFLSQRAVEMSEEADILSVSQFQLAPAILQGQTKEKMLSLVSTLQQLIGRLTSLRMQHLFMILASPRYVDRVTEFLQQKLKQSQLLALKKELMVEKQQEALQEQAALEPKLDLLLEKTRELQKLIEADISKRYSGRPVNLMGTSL", "assay": "pull-down; GST-UFM1(G), CDK5RAP3-GST or GST on glutathione-agarose beads; 35S-labelled in vitro translated proteins, pre-cleared on GST beads, added together with pre-cleared MIN6 lysate in ubiquitilation buffer (50 mM Tris pH 7.5, 100 mM NaCl, 0.1% NP40, 1 mM DTT, 2 mM ATP, 5 mM MgCl2), 30 min at 40°C as printed; phosphorimaging; only the target purified", "conditions": "remark: other sources report otherwise"}}, "note": "These are yes or no findings as the source states them, for the method shown. Binding seen in cells or lysates may run through a third protein. Some results given as binding are weak or reduced against the parent protein; the word gives no strength. For part of these data: Sequences can lack the tags named with a protein.", "data": [{"molecule": "BiP (HSPA5), endogenous (from UniProt P20029 20-655)", "values": [{"measurement": "binding", "setting": "[1]", "result": "binds"}]}, {"molecule": "35S-labelled mouse UFL1, in vitro translated (protein, UniProt Q8CCJ3 1-793, 35S-methionine labelled) MADAWEEIRRLAADFQRAQFAESTQRLSERNCIEIVNKLISQKQLEVVHTLDGKEYITPAQISKEMRDELHVRGGRVNIVDLQQVINVDLTHIESRVSDIIKSEKHVQMVLGQLIDENYLDQLSEEVNDKLQESGQVTVSELCKAYDLPGDFLTQALTQRLGRIINGHLDLDNRGVIFTEAFVARHKARIRGLFSAITRPTPVNSLVSKYGFQEQLLYSVLEDLVSTGRLRGTVVGGRQDKAVFVPDIYSRTQSTWVDSFFRQNGYLEFDALSRLGIPDAVNYIKKRYKNTQLLFLKATCVGQGLVDQVEASVEEAISSGTWVDISPLLPSSLSVEDAAMLLQQVMRPFGKLASAIVFSDTVVVSEKFITDCTGLFSERMHQKAEKEMKNNPVHLITEEDLKQISILESVNTSKKDKKDERRKKATEGSGSVRGGGGGNAREYKIKKTKKKGRKDEDSDDESQSSHGGKKKPDITFMFQDEIEDCLRKHIQDAPEEFISELAEYLIKPLNKMYLEVVRSVFMSSTSASGTGRKRTIKDLQEEVSNLYNNIRLFEKGMKYFADDTQTALTKHLLKTVCTDITNLMFNFLASDFLMAVEEPAAITSDIRKKILSKLTEETKVALTKLHNSLNEKSIEDFLSCLDSATEACDIMVKKGDKKRERQILFQHRQALCEQLKVTEDPALILHLTAVLLFQLSTHSMLHAPGRCVPQIIAFLHSKIPEDQHTLLVKYQGLVVKQLVSQNKKTGQGEDPSSDELDKEQHDVTNATRKELQELSLSIKDLVLKSRKSSVTEE", "values": [{"measurement": "binding", "setting": "[2]", "result": "binds"}]}, {"molecule": "35S-labelled mouse UFBP1 (UFM1-binding protein 1 containing a PCI domain), in vitro translated, Q80WW9 1-315 (protein, here or on the partner: 35S-methionine labelled) MVGPWVYLVAAVLLIGLILFLTRSRGRAAAADGEPLHNEEERAGAGQVGRSLPQESEEQRTGSRPRRRRDLGSRLQAQRRAQRVAWEDGDENVGQTVIPAQEEEGIEKPAEVHPTGKIGAKKLRKLEEKQARKAQREAEEAEREERKRLESQREAEWKKEEERLRLKEEQKEEEERKAQEEQARREHEEYLKLKEAFVVEEEGVSETMTEEQSHSFLTEFINYIKKSKVVLLEDLAFQMGLRTQDAINRIQDLLTEGTLTGVIDDRGKFIYITPEELAAVANFIRQRGRVSITELAQASNSLISWGQDLPAQASA", "values": [{"measurement": "binding", "setting": "[3]", "result": "no binding"}]}]}
